Experimental data published in paper PMC3522678.
No constants are given. Whether binding was seen depends on the method and setting. In cells and extracts the contact can be indirect. Some results given as binding are weak or reduced against the parent protein; the word gives no strength.

Amino acid sequences for entries named in this document (tags omitted). A change or cut given only in a name is not applied to a line headed by its entry. Chains listed by the source or under a name are the forms on record and can include a tag or linker.
GFP-tagged wild-type SET (Q01105, form named): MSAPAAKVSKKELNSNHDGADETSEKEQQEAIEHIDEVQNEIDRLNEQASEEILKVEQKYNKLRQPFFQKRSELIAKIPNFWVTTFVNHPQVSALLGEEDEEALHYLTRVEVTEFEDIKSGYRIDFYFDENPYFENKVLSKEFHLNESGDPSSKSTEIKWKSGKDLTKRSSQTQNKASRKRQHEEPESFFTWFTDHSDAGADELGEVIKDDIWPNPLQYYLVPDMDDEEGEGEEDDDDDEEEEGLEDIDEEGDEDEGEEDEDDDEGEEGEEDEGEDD

Biological target: GFP-tagged wild-type SET (human) (UniProt Q01105)
Test: co-IP; Jurkat cells or GFP-SET-WT expressing Jurkat cells (1×10^7) stimulated with PMA (20 ng/ml) and ionomycin (2 µg/ml) for 30 min at 37°C and lysed; lysate immunoprecipitated with anti-PKD2 or anti-GFP antibody and Protein A beads

B1: Protein kinase D2 (enzyme, UniProt Q9BZL6 1-878)
chain: MATAPSYPAGLPGSPGPGSPPPPGGLELQSPPPLLPQIPAPGSGVSFHIQIGLTREFVLLPAASELAHVKQLACSIVDQKFPECGFYGLYDKILLFKHDPTSANLLQLVRSSGDIQEGDLVEVVLSASATFEDFQIRPHALTVHSYRAPAFCDHCGEMLFGLVRQGLKCDGCGLNYHKRCAFSIPNNCSGARKRRLSSTSLASGHSVRLGTSESLPCTAEELSRSTTELLPRRPPSSSSSSSASSYTGRPIELDKMLLSKVKVPHTFLIHSYTRPTVCQACKKLLKGLFRQGLQCKDCKFNCHKRCATRVPNDCLGEALINGDVPMEEATDFSEADKSALMDESEDSGVIPGSHSENALHASEEEEGEGGKAQSSLGYIPLMRVVQSVRHTTRKSSTTLREGWVVHYSNKDTLRKRHYWRLDCKCITLFQNNTTNRYYKEIPLSEILTVESAQNFSLVPPGTNPHCFEIVTANATYFVGEMPGGTPGGPSGQGAEAARGWETAIRQALMPVILQDAPSAPGHAPHRQASLSISVSNSQIQENVDIATVYQIFPDEVLGSGQFGVVYGGKHRKTGRDVAVKVIDKLRFPTKQESQLRNEVAILQSLRHPGIVNLECMFETPEKVFVVMEKLHGDMLEMILSSEKGRLPERLTKFLITQILVALRHLHFKNIVHCDLKPENVLLASADPFPQVKLCDFGFARIIGEKSFRRSVVGTPAYLAPEVLLNQGYNRSLDMWSVGVIMYVSLSGTFPFNEDEDINDQIQNAAFMYPASPWSHISAGAIDLINNLLQVKMRKRYSVDKSLSHPWLQEYQTWLDLRELEGKMGERYITHESDDARWEQFAAEHPLPGSGLPTDRDLGGACPPQDHDMQGLAERISVL
In the case of B1, the binding is reported as “binds”.
